# Data as given in the supplement of paper PMC10849652.
# Sequences of proteins named here, by UniProt entry; tags and fusion partners are left off. A change or cut given only in a name is not applied to a line headed by its entry.
# UniProt Q9UMZ2: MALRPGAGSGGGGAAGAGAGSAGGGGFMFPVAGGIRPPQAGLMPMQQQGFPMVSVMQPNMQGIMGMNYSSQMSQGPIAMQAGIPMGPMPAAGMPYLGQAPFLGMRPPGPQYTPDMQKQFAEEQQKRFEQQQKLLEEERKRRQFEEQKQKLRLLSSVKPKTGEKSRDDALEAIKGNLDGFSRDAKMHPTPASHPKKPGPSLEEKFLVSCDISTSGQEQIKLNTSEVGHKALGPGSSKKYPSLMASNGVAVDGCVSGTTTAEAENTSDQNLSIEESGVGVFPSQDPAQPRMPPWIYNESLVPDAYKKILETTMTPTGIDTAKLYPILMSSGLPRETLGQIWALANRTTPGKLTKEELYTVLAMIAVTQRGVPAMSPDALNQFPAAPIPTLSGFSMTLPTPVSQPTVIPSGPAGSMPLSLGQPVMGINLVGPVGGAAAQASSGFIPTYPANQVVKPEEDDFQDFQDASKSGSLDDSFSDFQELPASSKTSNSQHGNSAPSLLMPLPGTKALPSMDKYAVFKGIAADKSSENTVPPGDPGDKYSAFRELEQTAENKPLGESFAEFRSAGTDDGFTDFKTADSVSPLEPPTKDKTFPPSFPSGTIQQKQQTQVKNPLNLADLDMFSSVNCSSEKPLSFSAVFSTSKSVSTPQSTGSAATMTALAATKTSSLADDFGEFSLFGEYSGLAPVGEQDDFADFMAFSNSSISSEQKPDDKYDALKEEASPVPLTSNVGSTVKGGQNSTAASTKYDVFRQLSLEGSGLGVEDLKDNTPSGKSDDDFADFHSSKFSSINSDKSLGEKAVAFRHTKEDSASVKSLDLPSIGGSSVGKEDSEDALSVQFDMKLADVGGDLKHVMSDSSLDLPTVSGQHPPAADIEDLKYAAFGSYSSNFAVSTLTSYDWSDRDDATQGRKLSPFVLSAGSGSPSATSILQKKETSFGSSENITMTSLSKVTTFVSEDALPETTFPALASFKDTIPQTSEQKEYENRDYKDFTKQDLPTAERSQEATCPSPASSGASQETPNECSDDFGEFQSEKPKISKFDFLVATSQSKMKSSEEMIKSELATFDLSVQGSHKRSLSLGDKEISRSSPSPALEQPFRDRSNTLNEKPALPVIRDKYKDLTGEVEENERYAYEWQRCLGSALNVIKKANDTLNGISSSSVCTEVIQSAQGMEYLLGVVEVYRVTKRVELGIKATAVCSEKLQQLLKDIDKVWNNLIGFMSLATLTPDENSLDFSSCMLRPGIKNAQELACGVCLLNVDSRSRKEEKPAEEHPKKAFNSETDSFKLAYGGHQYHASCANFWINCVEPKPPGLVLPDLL
# UniProt Q96I99: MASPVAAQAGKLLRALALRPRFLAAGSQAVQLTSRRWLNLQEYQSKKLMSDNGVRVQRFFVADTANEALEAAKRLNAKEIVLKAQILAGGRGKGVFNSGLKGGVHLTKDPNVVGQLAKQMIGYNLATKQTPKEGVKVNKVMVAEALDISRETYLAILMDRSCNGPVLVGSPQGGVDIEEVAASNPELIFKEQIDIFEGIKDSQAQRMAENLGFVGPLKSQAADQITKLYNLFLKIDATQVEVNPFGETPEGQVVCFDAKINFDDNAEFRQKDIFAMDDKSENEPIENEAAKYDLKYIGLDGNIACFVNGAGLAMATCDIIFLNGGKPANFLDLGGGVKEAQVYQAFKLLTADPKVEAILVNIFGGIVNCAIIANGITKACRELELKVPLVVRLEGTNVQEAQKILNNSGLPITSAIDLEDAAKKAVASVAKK
# UniProt Q9UBS9: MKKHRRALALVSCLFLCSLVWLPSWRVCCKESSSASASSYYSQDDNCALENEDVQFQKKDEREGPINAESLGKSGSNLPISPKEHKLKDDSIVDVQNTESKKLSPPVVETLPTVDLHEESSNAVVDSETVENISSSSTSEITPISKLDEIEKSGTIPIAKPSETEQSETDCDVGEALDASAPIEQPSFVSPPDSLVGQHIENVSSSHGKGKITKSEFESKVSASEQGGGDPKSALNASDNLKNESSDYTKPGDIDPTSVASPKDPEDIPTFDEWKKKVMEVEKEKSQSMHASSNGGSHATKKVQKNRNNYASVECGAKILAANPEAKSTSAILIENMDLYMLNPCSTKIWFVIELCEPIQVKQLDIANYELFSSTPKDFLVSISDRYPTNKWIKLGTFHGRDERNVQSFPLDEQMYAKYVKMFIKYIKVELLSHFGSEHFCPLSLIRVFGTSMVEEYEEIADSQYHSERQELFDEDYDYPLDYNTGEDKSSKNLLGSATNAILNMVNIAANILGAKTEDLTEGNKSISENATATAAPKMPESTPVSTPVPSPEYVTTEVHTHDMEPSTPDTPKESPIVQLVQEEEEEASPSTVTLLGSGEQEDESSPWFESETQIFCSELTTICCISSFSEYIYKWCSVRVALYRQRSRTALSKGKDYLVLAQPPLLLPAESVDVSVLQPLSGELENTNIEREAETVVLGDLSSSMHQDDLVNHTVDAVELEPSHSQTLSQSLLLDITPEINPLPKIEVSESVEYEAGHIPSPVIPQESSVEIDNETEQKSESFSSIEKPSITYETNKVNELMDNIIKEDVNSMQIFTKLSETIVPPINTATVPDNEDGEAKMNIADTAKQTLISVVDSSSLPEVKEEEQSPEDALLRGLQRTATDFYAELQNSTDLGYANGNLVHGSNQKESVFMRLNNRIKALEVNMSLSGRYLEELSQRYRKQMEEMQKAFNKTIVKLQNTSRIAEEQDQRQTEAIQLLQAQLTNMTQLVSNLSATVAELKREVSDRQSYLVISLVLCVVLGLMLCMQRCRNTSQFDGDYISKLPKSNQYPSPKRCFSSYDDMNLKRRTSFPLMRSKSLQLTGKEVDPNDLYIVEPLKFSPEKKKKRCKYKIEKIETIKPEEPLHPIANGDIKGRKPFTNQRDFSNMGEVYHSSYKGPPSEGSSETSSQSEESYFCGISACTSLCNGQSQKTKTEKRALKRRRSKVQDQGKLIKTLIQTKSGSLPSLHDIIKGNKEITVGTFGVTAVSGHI
# UniProt P37802: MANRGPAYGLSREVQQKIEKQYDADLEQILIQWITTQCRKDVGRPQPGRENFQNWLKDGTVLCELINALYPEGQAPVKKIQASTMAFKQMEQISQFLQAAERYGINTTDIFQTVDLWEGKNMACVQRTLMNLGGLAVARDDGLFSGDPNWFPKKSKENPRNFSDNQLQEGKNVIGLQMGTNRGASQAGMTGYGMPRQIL
# UniProt Q13148, whole entry, looked up: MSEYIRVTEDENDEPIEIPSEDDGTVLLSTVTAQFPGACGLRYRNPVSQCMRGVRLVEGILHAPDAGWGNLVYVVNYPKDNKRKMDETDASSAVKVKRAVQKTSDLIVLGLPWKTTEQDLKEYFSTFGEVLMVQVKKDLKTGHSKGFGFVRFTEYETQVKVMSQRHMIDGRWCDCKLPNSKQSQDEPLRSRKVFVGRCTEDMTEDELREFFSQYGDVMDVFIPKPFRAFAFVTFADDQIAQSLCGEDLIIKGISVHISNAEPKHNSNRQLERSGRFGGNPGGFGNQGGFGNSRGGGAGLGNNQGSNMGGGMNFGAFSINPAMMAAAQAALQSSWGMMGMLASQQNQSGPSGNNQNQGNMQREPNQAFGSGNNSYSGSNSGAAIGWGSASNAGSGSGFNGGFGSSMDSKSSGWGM
# UniProt Q6NXT6: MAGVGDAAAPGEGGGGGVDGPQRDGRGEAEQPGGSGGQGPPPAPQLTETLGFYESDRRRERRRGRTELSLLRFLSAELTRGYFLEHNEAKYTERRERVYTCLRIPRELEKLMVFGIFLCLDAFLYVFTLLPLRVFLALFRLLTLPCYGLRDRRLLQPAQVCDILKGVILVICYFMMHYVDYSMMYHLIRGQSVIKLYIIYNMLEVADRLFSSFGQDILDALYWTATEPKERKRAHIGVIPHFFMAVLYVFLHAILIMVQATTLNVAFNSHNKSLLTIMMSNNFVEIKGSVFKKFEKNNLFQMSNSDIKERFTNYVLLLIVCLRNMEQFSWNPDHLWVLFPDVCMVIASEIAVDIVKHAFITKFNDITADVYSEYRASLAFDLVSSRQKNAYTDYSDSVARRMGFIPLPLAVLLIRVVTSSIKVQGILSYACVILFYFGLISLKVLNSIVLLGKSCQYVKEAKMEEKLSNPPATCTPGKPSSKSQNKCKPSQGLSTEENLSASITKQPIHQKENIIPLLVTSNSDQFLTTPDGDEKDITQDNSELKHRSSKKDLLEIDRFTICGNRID
# UniProt Q13190: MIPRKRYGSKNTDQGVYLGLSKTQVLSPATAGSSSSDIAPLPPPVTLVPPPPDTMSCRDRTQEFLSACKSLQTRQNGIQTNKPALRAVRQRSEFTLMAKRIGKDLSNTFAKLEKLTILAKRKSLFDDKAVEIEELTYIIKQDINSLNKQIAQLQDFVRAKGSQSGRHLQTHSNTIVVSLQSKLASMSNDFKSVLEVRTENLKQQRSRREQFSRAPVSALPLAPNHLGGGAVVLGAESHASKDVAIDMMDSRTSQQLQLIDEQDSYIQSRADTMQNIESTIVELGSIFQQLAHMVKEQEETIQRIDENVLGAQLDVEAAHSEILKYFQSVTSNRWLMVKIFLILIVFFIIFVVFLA
# UniProt P16949: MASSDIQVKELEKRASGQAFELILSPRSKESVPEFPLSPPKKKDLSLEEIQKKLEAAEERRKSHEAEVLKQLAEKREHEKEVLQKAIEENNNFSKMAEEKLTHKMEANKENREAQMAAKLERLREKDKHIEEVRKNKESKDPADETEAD
# UniProt Q15545, whole entry, looked up: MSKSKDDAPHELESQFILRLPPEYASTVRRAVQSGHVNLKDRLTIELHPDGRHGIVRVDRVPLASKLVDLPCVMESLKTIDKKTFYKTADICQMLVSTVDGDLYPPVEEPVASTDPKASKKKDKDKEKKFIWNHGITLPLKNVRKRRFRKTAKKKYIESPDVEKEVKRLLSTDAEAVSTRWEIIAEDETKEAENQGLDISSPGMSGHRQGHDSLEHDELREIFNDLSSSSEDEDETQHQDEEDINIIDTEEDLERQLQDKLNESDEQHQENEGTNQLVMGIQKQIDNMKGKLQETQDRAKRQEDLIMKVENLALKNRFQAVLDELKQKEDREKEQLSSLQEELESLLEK
# UniProt Q9Y2Z0: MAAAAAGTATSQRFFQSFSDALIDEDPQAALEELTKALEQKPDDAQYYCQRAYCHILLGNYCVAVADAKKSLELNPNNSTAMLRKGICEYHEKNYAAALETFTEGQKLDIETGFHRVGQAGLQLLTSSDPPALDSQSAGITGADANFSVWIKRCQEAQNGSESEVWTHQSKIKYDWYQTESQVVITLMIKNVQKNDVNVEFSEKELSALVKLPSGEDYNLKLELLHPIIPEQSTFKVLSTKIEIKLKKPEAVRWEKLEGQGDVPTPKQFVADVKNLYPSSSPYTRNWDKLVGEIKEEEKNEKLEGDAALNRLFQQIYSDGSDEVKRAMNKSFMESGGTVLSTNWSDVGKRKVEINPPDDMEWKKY
# UniProt Q8N300: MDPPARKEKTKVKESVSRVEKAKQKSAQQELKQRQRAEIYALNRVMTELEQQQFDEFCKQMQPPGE
# UniProt O60506: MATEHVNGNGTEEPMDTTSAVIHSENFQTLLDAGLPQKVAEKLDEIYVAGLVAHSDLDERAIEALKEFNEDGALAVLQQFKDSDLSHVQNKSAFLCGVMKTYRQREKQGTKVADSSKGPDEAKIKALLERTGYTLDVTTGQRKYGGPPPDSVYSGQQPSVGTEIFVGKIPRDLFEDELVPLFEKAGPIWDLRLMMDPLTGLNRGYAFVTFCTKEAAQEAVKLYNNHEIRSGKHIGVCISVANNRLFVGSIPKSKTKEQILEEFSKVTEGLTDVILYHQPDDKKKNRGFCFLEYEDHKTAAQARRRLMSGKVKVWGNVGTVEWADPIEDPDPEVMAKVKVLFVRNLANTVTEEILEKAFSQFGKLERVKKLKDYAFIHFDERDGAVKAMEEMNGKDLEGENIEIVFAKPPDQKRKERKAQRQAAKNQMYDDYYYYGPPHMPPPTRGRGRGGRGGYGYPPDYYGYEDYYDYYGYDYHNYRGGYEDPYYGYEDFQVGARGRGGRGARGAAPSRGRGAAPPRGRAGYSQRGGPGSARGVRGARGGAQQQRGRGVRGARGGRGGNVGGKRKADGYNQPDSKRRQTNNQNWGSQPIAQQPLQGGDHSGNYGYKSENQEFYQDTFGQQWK
# UniProt Q7Z422: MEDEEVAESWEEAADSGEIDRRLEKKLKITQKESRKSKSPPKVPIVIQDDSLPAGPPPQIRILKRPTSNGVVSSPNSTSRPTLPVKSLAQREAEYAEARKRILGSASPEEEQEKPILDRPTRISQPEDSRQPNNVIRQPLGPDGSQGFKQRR
# UniProt Q86Y82: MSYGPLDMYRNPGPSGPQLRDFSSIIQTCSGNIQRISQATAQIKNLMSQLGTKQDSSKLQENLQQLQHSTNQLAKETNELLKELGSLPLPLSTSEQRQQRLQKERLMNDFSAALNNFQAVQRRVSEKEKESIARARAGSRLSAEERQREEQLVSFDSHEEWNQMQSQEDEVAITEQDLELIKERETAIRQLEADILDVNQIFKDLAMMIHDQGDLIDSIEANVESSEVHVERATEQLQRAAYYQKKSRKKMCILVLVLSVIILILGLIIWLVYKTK
# This is one part of the list.
# Compound: Nc1ccccc1NC(=O)c1ccc(CNC(=O)OCc2cccnc2)cc1 [entinostat]
# Assay: log2 fold change, soluble protein after heating vs DMSO (PISA); higher = thermal stabilisation; K562 cells, 10 uM, 30 min; active = over 0.2 and 3.5 SD of the protein, either way, in both replicates (recomputed)
# Method in brief: (§1)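 For each measurement, 10 μM compound was applied for 30 min to K562 cells at 2×10^6 cells/mL. Aliquots were heated for 3 min across 48°C-58°C, pooled, and extracted in PBS with 0.5% NP-40 at 4°C; the supernatant after 21,000xg for 90 min was soluble protein. This was quantified by TMTpro 16plex LC-MS/MS with channel sums equalised, and thermal stability was reported relative to control samples from duplicates, on a log2 fold-change scale.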
row,Target,log2 fold change
1,TATDN3 isoform 3 (UniProt Q17R31),inactive: 0.037
2,SYNJ1 (UniProt O43426),inactive: 0.007
3,"SYNJ2BP-COX16, A0A087WYV9",inactive: -0.076
4,STX10 (UniProt O60499),inactive: -0.023
5,SYNGR2 (UniProt O43760),inactive: 0.002
6,SYNRG (UniProt Q9UMZ2),inactive: 0.001
7,SUCLG2 (UniProt Q96I99),inactive: -0.005
8,TAF2 (UniProt Q6P1X5),inactive: -0.035
9,STT3A (UniProt P46977),inactive: 0.019
10,SUCO (UniProt Q9UBS9),inactive: -0.033
11,STT3B (UniProt Q8TCJ2),inactive: 0.041
12,TAGLN2 isoform 2 (UniProt P37802),inactive: 0.058
13,STRN4 isoform 3 (UniProt Q9NRL3),inactive: 0.006
14,STRIP1 (UniProt Q5VSL9),inactive: 0.026
15,TAF10 (UniProt Q12962),inactive: 0.094
16,SUPV3L1 (UniProt Q8IYB8),inactive: 0.011
17,TACO1 (UniProt Q9BSH4),inactive: 0.144
18,SYAP1 (UniProt Q96A49),inactive: 0.019
19,TARDBP (UniProt Q13148),inactive: -0.02
20,STXBP1 (UniProt P61764),inactive: -0.011

row,Target,log2 fold change
1,TAPT1 (UniProt Q6NXT6),inactive: -0.082
2,TACC3 (UniProt Q9Y6A5),inactive: -0.017
3,STX5 (UniProt Q13190),inactive: 0.019
4,STMN1 (UniProt P16949),inactive: -0.027
5,TAF7 (UniProt Q15545),inactive: 0.003
6,SUGT1 (UniProt Q9Y2Z0),inactive: 0.009
7,TAB1 (UniProt Q15750),inactive: 0.124
8,SVBP (UniProt Q8N300),inactive: -0.037
9,SYNCRIP (UniProt O60506),inactive: -0.043
10,SZRD1 (UniProt Q7Z422),inactive: -0.022
11,TARSL2 (UniProt A2RTX5),inactive: -0.011
12,SYVN1 (UniProt Q86TM6),inactive: -0.013
13,TAF8 isoform 2 (UniProt Q7Z7C8),inactive: -0.066
14,STX16 isoform 2 (UniProt O14662),inactive: -0.079
15,TAF15 (UniProt Q92804),inactive: -0.052
16,TANGO2 isoform 4 (UniProt Q6ICL3),inactive: -0.02
17,STX12 (UniProt Q86Y82),inactive: -0.09
18,STRIP2 (UniProt Q9ULQ0),inactive: 0.061
19,STRADA (UniProt Q7RTN6),inactive: -0.037

# Compound: O=C(CCCCCCC(=O)Nc1ccccc1)NO [vorinostat]
# Assay: as above
# Method in brief: as §1
row,Target,log2 fold change
1,TATDN3 isoform 3 (UniProt Q17R31),inactive: -0.017
2,SYNJ1 (UniProt O43426),inactive: -0.001
3,"SYNJ2BP-COX16, A0A087WYV9",inactive: -0.004
4,STX10 (UniProt O60499),inactive: -0.013
5,SYNGR2 (UniProt O43760),inactive: -0.007
6,SYNRG (UniProt Q9UMZ2),inactive: 0.085
7,SUCLG2 (UniProt Q96I99),inactive: 0.036
8,TAF2 (UniProt Q6P1X5),inactive: -0.055
9,STT3A (UniProt P46977),inactive: -0.022
10,SUCO (UniProt Q9UBS9),inactive: -0.035
11,STT3B (UniProt Q8TCJ2),inactive: -0.042
12,TAGLN2 isoform 2 (UniProt P37802),inactive: 0.026
13,STRN4 isoform 3 (UniProt Q9NRL3),inactive: -0.126
14,STRIP1 (UniProt Q5VSL9),inactive: -0.011
15,TAF10 (UniProt Q12962),inactive: -0.053
16,SUPV3L1 (UniProt Q8IYB8),inactive: -0.007
17,TACO1 (UniProt Q9BSH4),inactive: 0.127
18,SYAP1 (UniProt Q96A49),inactive: 0.028
19,TARDBP (UniProt Q13148),inactive: 0.146
20,STXBP1 (UniProt P61764),inactive: 0.131

row,Target,log2 fold change
1,TAPT1 (UniProt Q6NXT6),inactive: -0.067
2,TACC3 (UniProt Q9Y6A5),inactive: 0
3,STX5 (UniProt Q13190),inactive: 0.042
4,STMN1 (UniProt P16949),inactive: 0.032
5,TAF7 (UniProt Q15545),inactive: -0.023
6,SUGT1 (UniProt Q9Y2Z0),inactive: 0.021
7,TAB1 (UniProt Q15750),inactive: 0.054
8,SVBP (UniProt Q8N300),inactive: -0.107
9,SYNCRIP (UniProt O60506),inactive: 0
10,SZRD1 (UniProt Q7Z422),inactive: -0.002
11,TARSL2 (UniProt A2RTX5),inactive: 0.032
12,SYVN1 (UniProt Q86TM6),inactive: -0.042
13,TAF8 isoform 2 (UniProt Q7Z7C8),inactive: -0.052
14,STX16 isoform 2 (UniProt O14662),inactive: 0.042
15,TAF15 (UniProt Q92804),inactive: -0.002
16,TANGO2 isoform 4 (UniProt Q6ICL3),inactive: 0.022
17,STX12 (UniProt Q86Y82),inactive: -0.019
18,STRIP2 (UniProt Q9ULQ0),inactive: -0.042
19,STRADA (UniProt Q7RTN6),inactive: 0.054
